{
  "source": "the supplement of paper PMC8728848",
  "binders": {"B1": {"name": "Flo1 (Saccharomyces cerevisiae), P32768 (protein)", "chain": "SGATEACLPAGQRKSGMNINFYQYSLKDSSTYSNAAYMAYGYASKTKLGSVGGQTDISIDYNIPCVSSSGTFPCPQEDSYGNWGCKGMGACSNSQGIAYWSTDLFGFYTTPTNVTLEMTGYFLPPQTGSYTFKFATVDDSAILSVGGATAFNCCAQQQPPITSTNFTIDGIKPWGGSLPPNIEGTVYMYAGYYYPMKVVYSNAVSWGTLPISVTLPDGTTVSDDFEGYVYSFDDDLSQSNCTVPDPSNY"}},
  "assay_in_all_cases": "glycan array binding signal (z-score within array); higher = stronger binding",
  "conditions_in_all_cases": "glycan notation: IUPAC condensed, linker removed",
  "key": {"Man(a1-6)Man": {"biological_target": "Man(a1-6)Man", "in_short": "(§1)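 Glycan array binding is given as a within-array Z-score, which can be read as non-binding when negative. The arrays, 3228 of them, came from the Consortium for Functional Glycomics database and were retained only where the protein sequence was available. Z-scores were averaged across arrays of the same protein sequence at different concentrations or buffers and across linkers.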"}, "Man(b1-4)GlcNAc": {"biological_target": "Man(b1-4)GlcNAc", "in_short": "as §1"}, "MurNAc(b1-4)GlcNAc": {"biological_target": "MurNAc(b1-4)GlcNAc", "in_short": "as §1"}, "Neu5Ac(a2-3)Gal": {"biological_target": "Neu5Ac(a2-3)Gal", "in_short": "as §1"}, "[1]": {"biological_target": "Neu5Ac(a2-3)Gal(b1-3)GalNAc", "in_short": "as §1"}, "[2]": {"biological_target": "Neu5Ac(a2-3)Gal(b1-3)GalNAc(b1-3)Gal(a1-4)Gal(b1-4)Glc", "in_short": "as §1"}, "[3]": {"biological_target": "Neu5Ac(a2-3)Gal(b1-3)GalNAc(b1-4)Gal(b1-4)Glc", "in_short": "as §1"}, "[4]": {"biological_target": "Neu5Ac(a2-3)Gal(b1-3)GalNAc(b1-4)[Neu5Ac(a2-3)]Gal(b1-4)Glc", "in_short": "as §1"}, "[5]": {"biological_target": "Neu5Ac(a2-3)Gal(b1-3)GalNAc(b1-4)[Neu5Ac(a2-8)Neu5Ac(a2-3)]Gal(b1-4)Glc", "in_short": "as §1"}, "[6]": {"biological_target": "Neu5Ac(a2-3)Gal(b1-3)GalNAc6S", "in_short": "as §1"}, "[7]": {"biological_target": "Neu5Ac(a2-3)Gal(b1-3)GlcNAc", "in_short": "as §1"}, "[8]": {"biological_target": "Neu5Ac(a2-3)Gal(b1-3)GlcNAc(b1-2)Man", "in_short": "as §1"}, "[9]": {"biological_target": "Neu5Ac(a2-3)Gal(b1-3)GlcNAc(b1-2)Man(a1-3)[GlcNAc(b1-4)][Neu5Ac(a2-3)Gal(b1-3)GlcNAc(b1-2)Man(a1-6)]Man(b1-4)GlcNAc(b1-4)GlcNAc", "in_short": "as §1"}, "[10]": {"biological_target": "Neu5Ac(a2-3)Gal(b1-3)GlcNAc(b1-2)Man(a1-3)[Neu5Ac(a2-3)Gal(b1-3)GlcNAc(b1-2)Man(a1-6)]Man(b1-4)GlcNAc(b1-4)GlcNAc", "in_short": "as §1"}, "[11]": {"biological_target": "Neu5Ac(a2-3)Gal(b1-3)GlcNAc(b1-2)[Neu5Ac(a2-3)Gal(b1-3)GlcNAc(b1-4)]Man(a1-6)[Neu5Ac(a2-3)Gal(b1-3)GlcNAc(b1-2)Man(a1-3)]Man(b1-4)GlcNAc(b1-4)GlcNAc", "in_short": "as §1"}, "[12]": {"biological_target": "Neu5Ac(a2-3)Gal(b1-3)GlcNAc(b1-3)Gal(b1-3)GlcNAc", "in_short": "as §1"}, "[13]": {"biological_target": "Neu5Ac(a2-3)Gal(b1-3)GlcNAc(b1-3)Gal(b1-4)GlcNAc", "in_short": "as §1"}, "[14]": {"biological_target": "Neu5Ac(a2-3)Gal(b1-3)GlcNAc(b1-3)GalNAc", "in_short": "as §1"}, "[15]": {"biological_target": "Neu5Ac(a2-3)Gal(b1-3)GlcNAc(b1-6)GalNAc", "in_short": "as §1"}, "[16]": {"biological_target": "Neu5Ac(a2-3)Gal(b1-3)GlcNAc6S", "in_short": "as §1"}, "[17]": {"biological_target": "Neu5Ac(a2-3)Gal(b1-3)[Fuc(a1-4)]GlcNAc", "in_short": "as §1"}, "[18]": {"biological_target": "Neu5Ac(a2-3)Gal(b1-3)[Fuc(a1-4)]GlcNAc(b1-3)Gal(b1-3)[Fuc(a1-4)]GlcNAc", "in_short": "as §1"}, "[19]": {"biological_target": "Neu5Ac(a2-3)Gal(b1-3)[Fuc(a1-4)]GlcNAc(b1-3)Gal(b1-4)[Fuc(a1-3)]GlcNAc", "in_short": "as §1"}, "[20]": {"biological_target": "Neu5Ac(a2-3)Gal(b1-3)[GlcNAc(b1-6)]GalNAc", "in_short": "as §1"}, "[21]": {"biological_target": "Neu5Ac(a2-3)Gal(b1-3)[Neu5Ac(a2-3)Gal(b1-4)]GlcNAc", "in_short": "as §1"}, "[22]": {"biological_target": "Neu5Ac(a2-3)Gal(b1-3)[Neu5Ac(a2-6)]GalNAc", "in_short": "as §1"}, "[23]": {"biological_target": "Neu5Ac(a2-3)Gal(b1-3)[Neu5Ac(a2-6)]GlcNAc(b1-3)[Fuc(a1-3)[Gal(b1-4)]GlcNAc(b1-6)]Gal(b1-4)Glc", "in_short": "as §1"}, "[24]": {"biological_target": "Neu5Ac(a2-3)Gal(b1-3)]Neu5Ac(a2-3)Gal(b1-4)]GlcNAc", "in_short": "as §1"}, "Neu5Ac(a2-3)Gal(b1-4)Glc": {"biological_target": "Neu5Ac(a2-3)Gal(b1-4)Glc", "in_short": "as §1"}, "[25]": {"biological_target": "Neu5Ac(a2-3)Gal(b1-4)GlcNAc", "in_short": "as §1"}, "[26]": {"biological_target": "Neu5Ac(a2-3)Gal(b1-4)GlcNAc(b1-2)Man", "in_short": "as §1"}, "[27]": {"biological_target": "Neu5Ac(a2-3)Gal(b1-4)GlcNAc(b1-2)Man(a1-3)[GlcNAc(b1-2)Man(b1-4)GlcNAc(b1-2)Man(a1-6)]Man(b1-4)GlcNAc(b1-4)GlcNAc", "in_short": "as §1"}, "[28]": {"biological_target": "Neu5Ac(a2-3)Gal(b1-4)GlcNAc(b1-2)Man(a1-3)[GlcNAc(b1-4)][Neu5Ac(a2-3)Gal(b1-4)GlcNAc(b1-2)Man(a1-6)]Man(b1-4)GlcNAc(b1-4)GlcNAc", "in_short": "as §1"}, "[29]": {"biological_target": "Neu5Ac(a2-3)Gal(b1-4)GlcNAc(b1-2)Man(a1-3)[Neu5Ac(a2-3)Gal(b1-4)GlcNAc(b1-2)Man(a1-6)]Man(b1-4)GlcNAc(b1-4)GlcNAc", "in_short": "as §1"}, "[30]": {"biological_target": "Neu5Ac(a2-3)Gal(b1-4)GlcNAc(b1-2)Man(a1-3)[Neu5Ac(a2-3)Gal(b1-4)GlcNAc(b1-2)Man(a1-6)]Man(b1-4)GlcNAc(b1-4)[Fuc(a1-6)]GlcNAc", "in_short": "as §1"}, "[31]": {"biological_target": "Neu5Ac(a2-3)Gal(b1-4)GlcNAc(b1-2)Man(a1-3)[Neu5Ac(a2-6)Gal(b1-4)GlcNAc(b1-2)Man(a1-6)]Man(b1-4)GlcNAc(b1-4)GlcNAc", "in_short": "as §1"}},
  "note": "The other results are listed elsewhere or left out.",
  "data": [
    {"binder": "B1", "values": [
      {"measurement": "glycan array binding signal (z-score)", "setting": "Man(a1-6)Man", "value": -0.437},
      {"measurement": "glycan array binding signal (z-score)", "setting": "Man(b1-4)GlcNAc", "value": -0.306},
      {"measurement": "glycan array binding signal (z-score)", "setting": "MurNAc(b1-4)GlcNAc", "value": -1.12},
      {"measurement": "glycan array binding signal (z-score)", "setting": "Neu5Ac(a2-3)Gal", "value": -0.251},
      {"measurement": "glycan array binding signal (z-score)", "setting": "[1]", "value": 0.519},
      {"measurement": "glycan array binding signal (z-score)", "setting": "[2]", "value": -0.211},
      {"measurement": "glycan array binding signal (z-score)", "setting": "[3]", "value": -0.327},
      {"measurement": "glycan array binding signal (z-score)", "setting": "[4]", "value": 0.362},
      {"measurement": "glycan array binding signal (z-score)", "setting": "[5]", "value": 1.62},
      {"measurement": "glycan array binding signal (z-score)", "setting": "[6]", "value": -0.511},
      {"measurement": "glycan array binding signal (z-score)", "setting": "[7]", "value": -0.296},
      {"measurement": "glycan array binding signal (z-score)", "setting": "[8]", "value": 0.169},
      {"measurement": "glycan array binding signal (z-score)", "setting": "[9]", "value": 0.249},
      {"measurement": "glycan array binding signal (z-score)", "setting": "[10]", "value": 0.882},
      {"measurement": "glycan array binding signal (z-score)", "setting": "[11]", "value": 0.399},
      {"measurement": "glycan array binding signal (z-score)", "setting": "[12]", "value": -0.65},
      {"measurement": "glycan array binding signal (z-score)", "setting": "[13]", "value": -0.351},
      {"measurement": "glycan array binding signal (z-score)", "setting": "[14]", "value": -0.549},
      {"measurement": "glycan array binding signal (z-score)", "setting": "[15]", "value": -0.292},
      {"measurement": "glycan array binding signal (z-score)", "setting": "[16]", "value": -0.518},
      {"measurement": "glycan array binding signal (z-score)", "setting": "[17]", "value": -0.641},
      {"measurement": "glycan array binding signal (z-score)", "setting": "[18]", "value": 0.24},
      {"measurement": "glycan array binding signal (z-score)", "setting": "[19]", "value": 0.041},
      {"measurement": "glycan array binding signal (z-score)", "setting": "[20]", "value": 0.001},
      {"measurement": "glycan array binding signal (z-score)", "setting": "[21]", "value": -0.8},
      {"measurement": "glycan array binding signal (z-score)", "setting": "[22]", "value": 0.914},
      {"measurement": "glycan array binding signal (z-score)", "setting": "[23]", "value": -0.301},
      {"measurement": "glycan array binding signal (z-score)", "setting": "[24]", "value": -0.5},
      {"measurement": "glycan array binding signal (z-score)", "setting": "Neu5Ac(a2-3)Gal(b1-4)Glc", "value": 0.241},
      {"measurement": "glycan array binding signal (z-score)", "setting": "[25]", "value": -0.097},
      {"measurement": "glycan array binding signal (z-score)", "setting": "[26]", "value": -0.214},
      {"measurement": "glycan array binding signal (z-score)", "setting": "[27]", "value": 0.092},
      {"measurement": "glycan array binding signal (z-score)", "setting": "[28]", "value": 1.01},
      {"measurement": "glycan array binding signal (z-score)", "setting": "[29]", "value": -0.213},
      {"measurement": "glycan array binding signal (z-score)", "setting": "[30]", "value": 0.086},
      {"measurement": "glycan array binding signal (z-score)", "setting": "[31]", "value": -0.151}
    ]}
  ]
}
